Measurements reported in PubChem BioAssay AID504791 (Drosophila RNAi Screening Center, 2011)
In all, the deposit lists about 23,000 reagents; this is an unselected part of those that have a named target and a result. Of all reagents, 199 (0.86%) were called active. 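Plate-scaled ratios behind the calls are not deposited; printed light signals are raw; many rows marked increased or decreased are still called inactive.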 Entries without a mark were called inactive. A plus sign joins genes that one reagent is predicted to hit. No sequences are given here. The record does not give: the direction of the score.

Test: 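Genes whose knock-down strengthens or weakens small-RNA reporter silencing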 (primary screen)
Cell system: Drosophila S2-derived reporter cells
Knock-down reagent: long dsRNA against Drosophila genes, about 150-250 ng dsRNA per well (siRNA assay); about 80-120 ng (miRNA assay)
Duration: about 5 days (siRNA assay); about 4 days (miRNA assay)
Treatment: copper sulfate induction of reporters: 25 µM (siRNA assay); 200 mM stated (miRNA assay), 1-2 days before reading
Detection: 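Dual luciferase assay: Renilla to firefly signal ratio in each well, scaled to the mean ratio of its plate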
Call rule: 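a well was a first-pass pick when its plate-scaled ratio rose above 1.5 (siRNA assay) or 1.6 (miRNA assay), or dropped below 0.6; a gene counted only if two separate dsRNAs agreed on retest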

The opening 4 records, to show the layout:
gene,DRSC id,stable siRNA reporter change,"stable assay Renilla, run 1 (luminescence)","stable assay firefly, run 1 (luminescence)"
CG7202,DRSC11818,,6742,4.37e5
snky (sneaky),DRSC09838,,6522,4.00e5
pug (pugilist),DRSC17036,,5747,3.65e5
twin,DRSC15259,,7358,3.14e5

The listing, from the start:
gene,DRSC id,stable siRNA reporter change,"stable assay Renilla, run 1 (luminescence)","stable assay firefly, run 1 (luminescence)"
CG7202,DRSC11818,,6742,4.37e5
snky (sneaky),DRSC09838,,6522,4.00e5
pug (pugilist),DRSC17036,,5747,3.65e5
twin,DRSC15259,,7358,3.14e5
twin,DRSC15831,,7391,3.43e5
twin,DRSC21363,,7642,4.54e5
CG8814,DRSC00707,,12959,3.11e5
CG4586,DRSC18373,,8148,5.15e5
Cap-D3 + tomb,DRSC02347,,8238,5.03e5
Pgant6 (Polypeptide N-Acetylgalactosaminyltransferase 6),DRSC08552,,11002,5.60e5
vir-1 (virus-induced RNA 1),DRSC02501,,7075,3.82e5
vir-1 (virus-induced RNA 1),DRSC02863,,9025,4.84e5
Dim1,DRSC00563,,10450,5.02e5
kst (karst),DRSC08719,,7664,5.82e5
Or33a (Odorant receptor 33a),DRSC03386,,7039,4.07e5
sha (shavenoid),DRSC06331,,6708,3.87e5
CG3358,DRSC04992,,2.93e5,1.33e6
ste24b (ste24b prenyl protease type I),DRSC07315,,6634,3.19e5
hbn (homeobrain),DRSC04082,,5288,2.20e5
hbn (homeobrain),DRSC04238,,6251,4.68e5
hbn (homeobrain),DRSC04239,,5806,3.64e5
hbn (homeobrain),DRSC22436,,3572,3.64e5
CR42532 (pseudo),DRSC06713,,6348,3.80e5
CG32079,DRSC22636,,3104,3.35e5
Crtc (CREB-regulated transcription coactivator),DRSC10578,reporter ratio raised past the hit cutoff,7006,2.28e5
Crtc (CREB-regulated transcription coactivator),DRSC23130,,4211,2.71e5
CG16854,DRSC02536,,7580,3.06e5
CR18166 (pseudo),DRSC17260,,6335,3.80e5
CR18166 (pseudo),DRSC18147,reporter ratio lowered past the hit cutoff,6419,6.66e5
Pp2A-29B (Protein phosphatase 2A at 29B),DRSC03400,,6964,3.03e5
CG34007,DRSC01790,,4935,2.82e5
Ac13E (Adenylyl cyclase 13E),DRSC19325,,7435,5.89e5
CG14545,DRSC14889,,7102,3.58e5
PIG-S (Phosphatidylinositol glycan anchor biosynthesis class S),DRSC14643,,8991,3.64e5
PIG-S (Phosphatidylinositol glycan anchor biosynthesis class S),DRSC15388,,6863,3.60e5
PIG-S (Phosphatidylinositol glycan anchor biosynthesis class S),DRSC15952,,9053,3.20e5
CG10950,DRSC06020,,7196,3.03e5
CG17726,DRSC15255,,5559,4.45e5
CG14645,DRSC12231,,7087,3.74e5
CG32756,DRSC22505,,3507,3.47e5
CG32756,DRSC23271,,2935,2.56e5
PIG-U (Phosphatidylinositol glycan anchor biosynthesis class U),DRSC02193,,6463,7.32e5
Cyp6a2 (Cytochrome P450 6a2),DRSC05014,,7406,5.16e5
Alp1 (Alkaline phosphatase 1),DRSC11781,,9915,4.36e5
TpnC73F (Troponin C at 73F),DRSC11307,,6932,4.81e5
Aldh7A1 (Aldehyde dehydrogenase 7 family member A1),DRSC11083,,8019,3.01e5
CG12863,DRSC06203,,5920,3.99e5
CG10222,DRSC09714,,6228,3.73e5
CG13198,DRSC06323,,5280,2.70e5
Seipin,DRSC18654,,6571,3.81e5
CG9083,DRSC04625,,27293,1.13e6
Su(fu) (Suppressor of fused),DRSC16871,,8174,3.57e5
FAM21 (Family with sequence similarity 21),DRSC06623,,7266,3.08e5
CG33292 (retired record),DRSC22923,,4108,3.60e5
CG17780,DRSC15265,,7023,3.00e5
CG7366,DRSC10825,,5480,5.47e5
CG11898,DRSC14432,,4686,4.22e5
